PubChem BioAssay AID493246, Drosophila RNAi Screening Center, 2011

Screen: 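Genome-wide search for dsRNAs that reduce cell number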 (primary screen)
System: Drosophila Kc and S2R+ cells
Reagent: long dsRNA against Drosophila genes
Detection: 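Raw, unnormalised count of remaining cells in each well; per-plate z-scores of cell number underlie the calls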
Direction: Kc cell number and S2R+ cell number: higher = more cells remaining
Call rule: 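Counted as a hit if cell number falls by a z-score of at least 3 within its plate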
The screen tested about 21,000 reagents; shown is an unselected part of those with a known target gene and a result. Of all reagents, 429 (2%) were called active. 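Values are raw and not normalised between plates; calls rest on per-plate z-scores that were not deposited.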 Entries without a mark were called inactive. The numbers tell different reagents against one gene apart. Not given: the amount of reagent, the time to read-out.

{"target": "CG9837", "dsRNA no.": 1, "Kc cell number, rep 1": 1.35e6, "Kc cell number, rep 2": 1.40e6, "S2R+ cell number, rep 1": 1.29e6, "S2R+ cell number, rep 2": 1.37e6}
{"target": "Send1 (Spermathecal endopeptidase 1)", "dsRNA no.": 1, "Kc cell number, rep 1": 1.45e6, "Kc cell number, rep 2": 1.50e6, "S2R+ cell number, rep 1": 1.04e6, "S2R+ cell number, rep 2": 1.20e6}
{"target": "Dh44-R1 (Diuretic hormone 44 receptor 1)", "dsRNA no.": 1, "Kc cell number, rep 1": 1.44e6, "Kc cell number, rep 2": 1.53e6, "S2R+ cell number, rep 1": 1.15e6, "S2R+ cell number, rep 2": 1.12e6}
{"target": "PAN2 (Poly(A)-binding protein-dependent poly(A) ribonuclease 2)", "dsRNA no.": 1, "Kc cell number, rep 1": 1.40e6, "Kc cell number, rep 2": 1.43e6, "S2R+ cell number, rep 1": 1.25e6, "S2R+ cell number, rep 2": 1.26e6}
{"target": "Drl-2 (Derailed 2)", "dsRNA no.": 1, "Kc cell number, rep 1": 1.55e6, "Kc cell number, rep 2": 1.53e6, "S2R+ cell number, rep 1": 1.02e6, "S2R+ cell number, rep 2": 1.15e6}
{"target": "Drl-2 (Derailed 2)", "dsRNA no.": 2, "Kc cell number, rep 1": 1.55e6, "Kc cell number, rep 2": 1.65e6, "S2R+ cell number, rep 1": 1.38e6, "S2R+ cell number, rep 2": 1.42e6}
{"target": "Drl-2 (Derailed 2)", "dsRNA no.": 3, "Kc cell number, rep 1": 1.54e6, "Kc cell number, rep 2": 1.56e6, "S2R+ cell number, rep 1": 1.28e6, "S2R+ cell number, rep 2": 1.36e6}
{"target": "exp (expansion)", "dsRNA no.": 1, "Kc cell number, rep 1": 1.45e6, "Kc cell number, rep 2": 1.52e6, "S2R+ cell number, rep 1": 9.42e5, "S2R+ cell number, rep 2": 1.08e6}
{"target": "Dph1 (Diphthamide biosynthesis 1)", "dsRNA no.": 1, "Kc cell number, rep 1": 1.31e6, "Kc cell number, rep 2": 1.37e6, "S2R+ cell number, rep 1": 1.07e6, "S2R+ cell number, rep 2": 1.09e6}
{"target": "CG5758", "dsRNA no.": 1, "Kc cell number, rep 1": 1.49e6, "Kc cell number, rep 2": 1.57e6, "S2R+ cell number, rep 1": 8.98e5, "S2R+ cell number, rep 2": 1.02e6}
{"target": "CG5758", "dsRNA no.": 2, "Kc cell number, rep 1": 1.63e6, "Kc cell number, rep 2": 1.68e6, "S2R+ cell number, rep 1": 1.27e6, "S2R+ cell number, rep 2": 1.44e6}
{"target": "dnc (dunce)", "dsRNA no.": 1, "Kc cell number, rep 1": 1.52e6, "Kc cell number, rep 2": 1.54e6, "S2R+ cell number, rep 1": 9.34e5, "S2R+ cell number, rep 2": 1.11e6}
{"target": "dnc (dunce)", "dsRNA no.": 2, "Kc cell number, rep 1": 1.53e6, "Kc cell number, rep 2": 1.63e6, "S2R+ cell number, rep 1": 1.05e6, "S2R+ cell number, rep 2": 1.18e6}
{"target": "dnc (dunce)", "dsRNA no.": 3, "Kc cell number, rep 1": 1.49e6, "Kc cell number, rep 2": 1.54e6, "S2R+ cell number, rep 1": 1.08e6, "S2R+ cell number, rep 2": 1.20e6}
{"target": "dnc (dunce)", "dsRNA no.": 4, "Kc cell number, rep 1": 1.59e6, "Kc cell number, rep 2": 1.54e6, "S2R+ cell number, rep 1": 1.07e6, "S2R+ cell number, rep 2": 1.24e6}
{"target": "dnc (dunce)", "dsRNA no.": 5, "Kc cell number, rep 1": 1.60e6, "Kc cell number, rep 2": 1.68e6, "S2R+ cell number, rep 1": 1.06e6, "S2R+ cell number, rep 2": 1.26e6}
{"target": "CG16984", "dsRNA no.": 1, "Kc cell number, rep 1": 1.39e6, "Kc cell number, rep 2": 1.17e6, "S2R+ cell number, rep 1": 1.00e6, "S2R+ cell number, rep 2": 1.27e6}
{"target": "Nep2 (Neprilysin 2)", "dsRNA no.": 1, "Kc cell number, rep 1": 1.52e6, "Kc cell number, rep 2": 1.58e6, "S2R+ cell number, rep 1": 1.47e6, "S2R+ cell number, rep 2": 1.46e6}
{"target": "flfl (falafel)", "dsRNA no.": 1, "Kc cell number, rep 1": 1.34e6, "Kc cell number, rep 2": 1.34e6, "S2R+ cell number, rep 1": 1.04e6, "S2R+ cell number, rep 2": 1.09e6}
{"target": "Sas10 (Something about silencing 10)", "dsRNA no.": 1, "Kc cell number, rep 1": 1.53e6, "Kc cell number, rep 2": 1.56e6, "S2R+ cell number, rep 1": 1.01e6, "S2R+ cell number, rep 2": 1.19e6}
{"target": "CG14736", "dsRNA no.": 1, "Kc cell number, rep 1": 1.68e6, "Kc cell number, rep 2": 1.62e6, "S2R+ cell number, rep 1": 1.19e6, "S2R+ cell number, rep 2": 1.33e6}
